Data taken from patent US20240382438A1, “Calcium Channel Blockers and Methods Thereof” (University of Maryland, Eastern Shore, priority 2023, published 2024).
“Also recorded” adds a separate entry of the source. Some entries repeat one wording, which the source may state once for all of them.

Legend:
T-type Ca^2+ channels = assay: Whole-cell recording of T-type Ca2+ currents in differentiated ND7/23 cells; format: cell-based, mouse neuroblastoma and rat dorsal root ganglion cells; conditions: 50 μM, Ca2+ current recordings
Protocol: (§1) ND7/23 cells are derived from the fusion of mouse neuroblastoma and rat dorsal root ganglion cells, which generates a more homogeneous sensory neuron-like cell population. ND7/23 cells were purchased from Sigma-Aldrich (RRID:CVCL_4259). Culture and differentiation of ND7/23 cells was performed as previously described. Briefly, ND7/23 cells were cultured in DMEM/F12 culture media (Millipore, Cat. #DF-041-B), supplemented with 0.5% fetal bovine serum (Invitrogen, Cat. #10437010), db-cAMP (1 mM, Sigma-Aldrich, Cat. #D0627), and nerve growth factor (NGF, 50 ng/mL, Sigma-Aldrich, Ca. #N2513). To remove any proliferating cells, cultures were treated with uridine (20 μM, Sigma-Aldrich, Cat. #U3003) and fluorodeoxyuridine (20 μM, Sigma-Aldrich, Cat. #F0503). Cells were maintained in differentiation media without uridine and fluorodeoxyuridin after induction of differentiation. ND7/23 cells were maintained in differentiation media for ≤6 days. HEK 293 cells that were stabled transfected with the human Cav3.2 and Cav3.3 channel subunits were a gift of Dr. E. Perez-Reyes (University of Virginia). Cav3.2 (or Cav3.3)-stabled transfected HEK 293 cells were culture in DMEM/F12 culture media, supplemented with 5% fetal bovine serum, 50 U/mL penicillin and 50 μg/mL streptomycin. ND7/23 and HEK 293 cells were grown in an incubator at 37° C. in the presence of 5% CO2/95% air humidified atmosphere. Cells passaged less than 20 times were used in this work. Cells were grown in poly-D-lysine-coated glass coverslips for electrophysiological recordings.
(§2) Whole cell recordings were performed as previously described. A Nikon Eclipse Ti inverted microscope equipped with Hoffman optics and epifluorescence filters was used to visualize individual cells. Recordings were performed at room temperature (22-24° C.) using glass electrodes made from thin wall borosilicate glass (3-5 MΩ). For electrophysiological recordings of inward Ca^2+ currents, outward K^+ currents were eliminated by equimolar substitution of K^+ with Cs^+ in the pipette solution, whereas inward Na^+ currents were eliminated by the use of TEA ions in the external solution, which are unable to go through voltage-gated Na^+ channels. The pipette solution consisted of (in mM) CsCl (120), MgCl2(2), HEPES (10), EGTA (10), ATP (1), and GTP (0.1), pH 7.4 with CsOH. The composition of the normal external saline used for measurements of Ca^2+ currents was (in mM): tetraethylammonium chloride (TEACl, 145), CaCl2 (10), MgCl2(1), HEPES (10), and glucose (5), pH 7.4 adjusted with CsOH. Ca^2+ currents were generated by applying a 200-500 ms-depolarizing step to various potentials from a holding potential of −100 mV. The external solution used to measure Na^+ currents contained (in mM) NaCl (145), KCl (5.3), CaCl2 (0.5), MgCl2 (5.7), HEPES (13), and glucose (5), pH 7.4 adjusted with KOH. The composition of the CsCl-pipette solution used to record Na^+ currents was the same describe above. Na^+ currents were generated by applying a 20 ms-depolarizing step to various potentials from a holding potential of −100 mV. To assess drug-evoked changes on specific ionic conductances, current amplitudes were expressed as current densities as previously reported. To assess current densities, cell size was normalized by dividing current amplitudes by cell capacitance. Cell capacitance was determined by integrating the transient current evoked by a 10-mV voltage step from a holding potential of −60 mV.
A MULTICLAMP 700A amplifier and PCLAMP software (Axon Instruments) was used to deliver voltage commands and to perform data acquisition and analysis. Pipette offset, whole cell capacitance, and series resistance were compensated automatically with the MultiClamp 700B Commander. Only cells with stable seals and series resistance (≤10 MΩ) were analyzed. Sampling rates were between 5 and 10 kHz. Leak currents were subtracted online using a P/4 protocol. […]

[1] = system: voltage-activated Na^+ channels; assay: Whole-cell recording of Na+ currents in differentiated ND7/23 cells; format: cell-based, mouse neuroblastoma and rat dorsal root ganglion cells; conditions: 50 μM, Na+ current recordings
Protocol: as §1
as §2, with “Na^+ currents were generated by applying a 20 ms-depolarizing step to various potentials from a holding potential of −100 mV.” left out, “To assess current densities, cell size was normalized by dividing current amplitudes by cell capacitance.” left out
A MULTICLAMP 700A amplifier and PCLAMP software (Axon Instruments) was used to deliver voltage commands and to perform data acquisition and analysis. […] Only cells with stable seals and series resistance (≤10 MΩ) were analyzed. […]

Structure (SMILES)	Effect on whole cell capacitance (T-type Ca^2+ channels)	Effect on whole cell capacitance [1]	Effect on whole cell capacitance (T-type Ca^2+ channels; listed as TTA40)	Effect on whole cell capacitance (T-type Ca^2+ channels; listed as IAB65)	Effect on whole cell capacitance ([1]; listed as RHB 111)
CC1CC(=O)C=C(NC(=O)c2ccccc2C(F)(F)F)C1 (stereo not shown) [IAA61, N-(5-methyl-3-oxocyclohex-1-en-1-yl)-2-(trifluoromethyl) benzamide]	no effect on cell capacitance	no noticeable effect; also recorded: no effect on cell capacitance			
CC(C)C1CC(=O)C=C(NC(=O)c2ccc(C(F)(F)F)cc2)C1 (stereo not shown) [IAC41, N-(5-isopropyl-3-oxocyclohex-1-en-1-yl)-4-(trifluoromethyl) benzamide]	None of the tested compounds has any effect; also recorded: no effect on cell capacitance				
CC1CC(=O)C=C(NC(=O)c2cc(C(F)(F)F)cc(C(F)(F)F)c2)C1 (stereo not shown) [IAA65, N-(5-methyl-3-oxocyclohex-1-en-1-yl)-3,5-bis(trifluoromethyl) benzamide]	no effect on cell capacitance	no noticeable effect; also recorded: no effect on cell capacitance			
CC1CC(=O)C=C(NC(=O)c2ccc(C(F)(F)F)cc2)C1 (stereo not shown) [THA40, N-(5-methyl-3-oxocyclohex-1-en-1-yl)-4-(trifluoromethyl) benzamide]	None of the tested compounds has any effect		no effect on cell capacitance		
CC1CC(=O)C=C(NC(=O)c2ccccc2F)C1 (stereo not shown) [IAB67, 2-fluoro-N-(5-methyl-3-oxocyclohex-1-en-1-yl) benzamide]	None of the tested compounds has any effect			no effect on cell capacitance	
CC1CC(=O)C=C(NC(=O)c2cccc(C(F)(F)F)c2)C1 (stereo not shown) [IAB15, N-(5-methyl-3-oxocyclohex-1-en-1-yl)-3-(trifluoromethyl) benzamide]	no effect on cell capacitance	no noticeable effect; also recorded: no effect on cell capacitance			
O=C1C=C(NC(=O)c2cccc(OC(F)(F)F)c2)CC(C(F)(F)F)C1 (stereo not shown) [RHB121, N-(3-oxo-5-(trifluoromethyl)cyclohex-1-en-1-yl)-3-(trifluoromethoxy)benzamide]		does not affect			no effect on cell capacitance
